# At least one structure is not confirmed: it was looked up by name or label, or the drawing left a doubt.
# Legend:
# [1] = test system: aged OPCs; assay: Comet assay (DNA damage) of aged OPCs; assay type: cell-based, rat; conditions: DNA damage among the hallmarks
# Description: For comet assays of freshly isolated OPCs approximately 5000 OPCs were resuspended in 100 μl PBS and mixed with 300 μl 1% low melting point agarose (37° C.). Alternatively, when OPCs were cultured prior to the assay, the cells were detached using TrypLE 1× Select (Gibco) for 8 min at 37° C. The comet assay was then performed as described in reference 33. Briefly, OPCs were centrifuged at 300 g for 5 min. at room temperature and the cell pellet was resuspended with 100 μl PBS and then mixed with 300 μl molten low-melting point agarose pre-incubated at 37° C. The cell-agarose suspension was then applied gently onto polysine slides that were pre-treated with 1% agarose and allowed 590 to solidify at 4° C. The slides were submersed in alkaline cell lysis buffer (0.3M NaOH, 100 mM EDTA, 0.1% (w/v) N592 Lauroylsarcosine (Sigma, 61745), 1.2M NaCl in ddH2O) for 16 hours at 4° C. in the dark. […] Finally, electrophoresed and propidium iodide stained DNA was visualized using a Zeiss Axiovision Fluorescence microscope (Carl Zeiss), and 50-100 nuclei per animal were visually scored according to published protocols^34. Statistical significance was determined comparing respective damage categories between experimental groups by a two-tailed unpaired t-test. […]
# [2] = test system: aged OPCs; assay: Differentiation assay of cultured aged OPCs; assay type: cell-based, rat; conditions: agent added prior to pro-differentiation compounds / onset of differentiation, Olig2+MBP+ cells
# Description: Adult rats (2-27 months) were decapitated after lethal injection of phenobarbital into the tail vein. The brains were removed quickly and placed into ice-cold isolation medium (Tab. S3, alternatively Hibernate A (Brainbits). The telencephalon and cerebellum were dissected in isolation medium; meninges, and the olfactory bulb were mechanically removed and the brain tissue was mechanically minced into 1 mm3 pieces. The tissue pieces were spun down at 100 g for 1 min at RT and the tissue was washed in HBSS− (no Mg2+ and Ca2+, Gibco). Each half of the brain was mixed with 5 ml of dissociation solution (34 U/ml papain (Worthington), 20 μg/ml DNAse Type IV (Gibco) in isolation medium). The brain tissue was dissociated on a shaker (50 rpm) 494 for 40 min at 35° C. The digestion was stopped by addition of ice cold HBSS−. The tissue was centrifuged (200 g, 3 min, RT), the supernatant completely aspirated and the tissue resuspended in isolation medium supplemented with 2% B27 and 2 mM sodium-pyruvate (trituration solution). The tissue was allowed to sit in this solution for 5 min. To obtain a single cell suspension the tissue suspension was triturated 10 times using first a 5 ml serological pipette and subsequently three fire polished glass pipettes (opening diameter >0.5 mm). […]
smiles,measurement,setting,value
CO[C@H]1C[C@@H]2CC[C@@H](C)[C@@](O)(O2)C(=O)C(=O)N2CCCC[C@H]2C(=O)O[C@H]([C@H](C)C[C@@H]2CC[C@@H](O)[C@H](OC)C2)CC(=O)[C@H](C)/C=C(\C)[C@@H](O)[C@@H](OC)C(=O)[C@H](C)C[C@H](C)/C=C/C=C/C=C/1C [rapamycin],hallmarks of aging of aged OPCs,[1],"ameliorates some of the hallmarks of aging, including DNA damage"
same,"differentiation of aged OPCs (differentiation potential), agent added before differentiation",[2],restore the differentiation potential of aged OPCs

# Source: patent US20210186903A1, “TREATMENT FOR DEMYELINATING DISEASE” (CAMBRIDGE ENTERPRISE LIMITED, priority 2018, published 2021)
